Results are given in words; binding and its absence hold for the method and conditions named. Binding seen in cells or lysates may run through a third protein. Some binding calls cover weakened binding; strength is not graded here.
Target: T1, NAGK-FL25-C (UniProt Q6V1L5)
T1 sequence: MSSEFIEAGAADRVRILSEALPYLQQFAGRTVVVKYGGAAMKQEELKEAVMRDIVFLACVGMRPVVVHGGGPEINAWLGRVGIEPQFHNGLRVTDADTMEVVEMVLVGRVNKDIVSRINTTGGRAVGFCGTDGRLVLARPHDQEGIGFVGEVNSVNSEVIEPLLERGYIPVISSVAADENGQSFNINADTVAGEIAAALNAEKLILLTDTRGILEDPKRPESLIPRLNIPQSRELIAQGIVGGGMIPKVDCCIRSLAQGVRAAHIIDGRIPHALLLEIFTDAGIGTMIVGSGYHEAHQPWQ
Assay: FRET or BRET; FRET ratio (525 nm / 475 nm emission) of NAGK-FL25-C and PII-ST-V incubated together in a reaction mix. ATP was present (0.1 mM, 0.075 mM or 2 mM, depending on the panel). Effectors (2-OG, ADP, other metabolites) were added to dissociate the complex. Triplicates.

Amino acid sequences for entries named in this document (tags omitted).
UniProt P0A3F4: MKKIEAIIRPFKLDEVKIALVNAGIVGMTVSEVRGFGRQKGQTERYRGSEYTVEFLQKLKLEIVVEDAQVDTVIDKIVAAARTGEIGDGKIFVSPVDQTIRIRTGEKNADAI

With PII-ST-V (from UniProt P0A3F4 1-112) the binding was “binds”.
